This is one part of the list. Repeats are few or missing, and single values can be far off.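 Imaging used 1,536-well plates; nuclei positive for cleaved PARP by antibody were divided by total DNA-stained nuclei to yield the apoptosis fraction. Doses for screening kept most cells viable, and cell lines differ markedly in resting and induced cleaved-PARP levels.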
How the values were obtained:
Test in all cases: cleaved PARP positive nuclei fraction relative to DMSO control; melanoma cells; higher = more apoptosis
Details in all cases: library dose: low library concentration; 72 h
CBRC034 = test system: CBRC034 (line from a melanoma biopsy)
COLO792 = test system: COLO792
COLO800 = test system: COLO800
COLO829 = test system: COLO829
G361 = test system: G361
IPC-298 = test system: IPC-298
IST-MEL1 = test system: IST-MEL1
LB2518-MEL = test system: LB2518-MEL
LOXIMVI = test system: LOXIMVI
MEL-HO = test system: MEL-HO

Row | SMILES | cleaved PARP positive nuclei fraction (CBRC034) [%] | cleaved PARP positive nuclei fraction (COLO792) [%] | cleaved PARP positive nuclei fraction (COLO800) [%] | cleaved PARP positive nuclei fraction (COLO829) [%] | cleaved PARP positive nuclei fraction (G361) [%] | cleaved PARP positive nuclei fraction (IPC-298) [%] | cleaved PARP positive nuclei fraction (IST-MEL1) [%] | cleaved PARP positive nuclei fraction (LB2518-MEL) [%] | cleaved PARP positive nuclei fraction (LOXIMVI) [%] | cleaved PARP positive nuclei fraction (MEL-HO) [%]
1 | COc1ccc(C2=N[C@@H](c3ccc(Cl)cc3)[C@@H](c3ccc(Cl)cc3)N2C(=O)N2CCNC(=O)C2)c(OC(C)C)c1 [Nutlin-3] + N.N.[Cl][Pt][Cl] [cisplatin] (first compound 0.1 µM, partner dose 1.6 µM) | 72.3 | 123 | 141 | 124 | 103 | 91.2 | 135 | 114 | 220 | 169
2 | O=C(Nc1cc(C(F)(F)F)cc(C(F)(F)F)c1)c1cc(Cl)ccc1O + Cn1cc(C2=C(c3cn(C4CCN(Cc5ccccn5)CC4)c4ccccc34)C(=O)NC2=O)c2ccccc21 [Enzastaurin] (first compound 0.016 µM, partner dose 0.8 µM) | 54.2 | 120 | 39.5 | 26.5 | 115 | 41.8 | 185 | 132 | 147 | 115
3 | C[As](C)SC[C@H](NC(=O)CC[C@H](N)C(=O)O)C(=O)NCC(=O)O [Darinaparsin] + Nc1cccc2c1CN(C1CCC(=O)NC1=O)C2=O [lenalidomide] (first compound 0.4 µM, partner dose 1 µM) | 138 | 58.7 | 123 | 126 | 58.9 | 170 | 123 | 111 | 74.7 | 80.8
4 | Cn1cc(C2=C(c3cn(C4CCN(Cc5ccccn5)CC4)c4ccccc34)C(=O)NC2=O)c2ccccc21 [Enzastaurin] + CS(=O)(=O)c1ccc(C(=O)Nc2ccc(Cl)c(-c3ccccn3)c2)c(Cl)c1 [vismodegib] (first compound 0.8 µM, partner dose 1 µM) | 64.7 | 76.4 | 48.6 | 113 | 69.6 | 43.7 | 130 | 106 | 21.6 | 91.1
5 | N.N.[Cl][Pt][Cl] [cisplatin] + C=C(c1ccc(C(=O)O)cc1)c1cc2c(cc1C)C(C)(C)CCC2(C)C [Bexarotene] (first compound 1.6 µM, partner dose 2 µM) | 71.8 | 152 | 65.6 | 98.2 | 157 | 89.9 | 115 | 105 | 42.1 | 44.4
6 | C[C@@H](N)c1ccc(C(=O)Nc2ccnc3[nH]ccc23)cc1 + Cn1cc(C2=C(c3cn(C4CCN(Cc5ccccn5)CC4)c4ccccc34)C(=O)NC2=O)c2ccccc21 [Enzastaurin] (first compound 0.4 µM, partner dose 0.8 µM) | 73.3 | 107 | 88.1 | 108 | 115 | 81.3 | 54.2 | 118 | 157 | 91.7
7 | Cc1ccc(Nc2nccc(N(C)c3ccc4c(C)n(C)nc4c3)n2)cc1S(N)(=O)=O [Pazopanib] + Cn1cc(C2=C(c3cn(C4CCN(Cc5ccccn5)CC4)c4ccccc34)C(=O)NC2=O)c2ccccc21 [Enzastaurin] (first compound 0.4 µM, partner dose 0.8 µM) | 66.4 | 99.5 | 80 | 56.9 | 95.2 | 97.9 | 244 | 110 | 153 | 109
8 | Cc1ccc(Nc2nccc(N(C)c3ccc4c(C)n(C)nc4c3)n2)cc1S(N)(=O)=O [Pazopanib] + C[C@]12O[C@H](C[C@]1(O)CO)n1c3ccccc3c3c4c(c5c6ccccc6n2c5c31)CNC4=O [Lestaurtinib] (first compound 0.4 µM, partner dose 0.004 µM) | 125 | 133 | 203 | 111 | 115 | 281 | 90.1 | 114 | 93.3 | 139
9 | Cn1cc(C2=C(c3cn(C4CCN(Cc5ccccn5)CC4)c4ccccc34)C(=O)NC2=O)c2ccccc21 [Enzastaurin] + Nc1ccn([C@@H]2O[C@H](CO)[C@@H](O)C2(F)F)c(=O)n1 [gemcitabine] (first compound 0.8 µM, partner dose 0.0004 µM) | 431 | 105 | 51.4 | 122 | 42.5 | 148 | 140 | 51.4 | 54.9 | 44
10 | C[C@]12O[C@H](C[C@]1(O)CO)n1c3ccccc3c3c4c(c5c6ccccc6n2c5c31)CNC4=O [Lestaurtinib] + CN(c1ncccc1CNc1nc(Nc2ccc3c(c2)CC(=O)N3)ncc1C(F)(F)F)S(C)(=O)=O [PF562271] (first compound 0.004 µM, partner dose 0.08 µM) | 89.4 | 131 | 51.3 | 75.3 | 144 | 47.5 | 80.1 | 47.9 | 81.4 | 114
11 | Cc1cc(Nc2cc(N3CCN(C)CC3)nc(/C=C/c3ccccc3)n2)n[nH]1 + C[As](C)SC[C@H](NC(=O)CC[C@H](N)C(=O)O)C(=O)NCC(=O)O [Darinaparsin] (first compound 0.04 µM, partner dose 0.4 µM) | 77 | 88.8 | 44.6 | 68 | 76.3 | 61.6 | 62.4 | 250 | 66.2 | 109

Another view of some results above.
Row	SMILES	cleaved PARP positive nuclei fraction (CBRC034) [%]	cleaved PARP positive nuclei fraction (COLO792) [%]	cleaved PARP positive nuclei fraction (COLO800) [%]	cleaved PARP positive nuclei fraction (COLO829) [%]	cleaved PARP positive nuclei fraction (G361) [%]	cleaved PARP positive nuclei fraction (IPC-298) [%]	cleaved PARP positive nuclei fraction (IST-MEL1) [%]	cleaved PARP positive nuclei fraction (LB2518-MEL) [%]	cleaved PARP positive nuclei fraction (LOXIMVI) [%]	cleaved PARP positive nuclei fraction (MEL-HO) [%]
3	C[As](C)SC[C@H](NC(=O)CC[C@H](N)C(=O)O)C(=O)NCC(=O)O [Darinaparsin] + Nc1cccc2c1CN(C1CCC(=O)NC1=O)C2=O [lenalidomide] (first compound 0.4 µM, partner dose 1 µM)	138	58.7	123	126	58.9	170	123	111	74.7	80.8
4	Cn1cc(C2=C(c3cn(C4CCN(Cc5ccccn5)CC4)c4ccccc34)C(=O)NC2=O)c2ccccc21 [Enzastaurin] + CS(=O)(=O)c1ccc(C(=O)Nc2ccc(Cl)c(-c3ccccn3)c2)c(Cl)c1 [vismodegib] (first compound 0.8 µM, partner dose 1 µM)	64.7	76.4	48.6	113	69.6	43.7	130	106	21.6	91.1

Reference: the supplement of paper PMC4604168 (melanoma cell lines)
